Results are given in words; binding and its absence hold for the method and conditions named. In cells and extracts the contact can be indirect. For part of these data: Where a sequence is shown, tags or fusion partners need not be part of it.
B1: ubiquitin-like protein 4A (UBL4A), full-length, C-terminal V5/poly-histidine tag (protein, UniProt P11441 1-157)
chain: MQLTVKALQGRECSLQVPEDELVSTLKQLVSEKLNVPVRQQRLLFKGKALADGKRLSDYSIGPNSKLNLVVKPLEKVLLEEGEAQRLADSPPPQVWQLISKVLARHFSAADASRVLEQLQRDYERSLSRLTLDDIERLASRFLHPEVTETMEKGFSK
modifications: [35S]methionine label (in vitro translation)
B2: UBL7, full-length human (protein, UniProt Q96S82 1-380)
chain: MSLSDWHLAVKLADQPLTPKSILRLPETELGEYSLGGYSISFLKQLIAGKLQESVPDPELIDLIYCGRKLKDDQTLDFYGIQPGSTVHVLRKSWPEPDQKPEPVDKVAAMREFRVLHTALHSSSSYREAVFKMLSNKESLDQIIVATPGLSSDPIALGVLQDKDLFSVFADPNMLDTLVPAHPALVNAIVLVLHSVAGSAPMPGTDSSSRSMPSSSYRDMPGGFLFEGLSDDEDDFHPNTRSTPSSSTPSSRPASLGYSGAAGPRPITQSELATALALASTPESSSHTPTPGTQGHSSGTSPMSSGVQSGTPITNDLFSQALQHALQASGQPSLQSQWQPQLQQLRDMGIQDDELSLRALQATGGDIQAALELIFAGGAP
modifications: [35S]methionine label (in vitro translation)
B3: BAG1, full-length human (protein, UniProt Q99933 1-345)
chain: MAQRGGARRPRGDRERLGSRLRALRPGREPRQSEPPAQRGPPPSGRPPARSTASGHDRPTRGAAAGARRPRMKKKTRRRSTRSEELTRSEELTLSEEATWSEEATQSEEATQGEEMNRSQEVTRDEESTRSEEVTREEMAAAGLTVTVTHSNEKHDLHVTSQQGSSEPVVQDLAQVVEEVIGVPQSFQKLIFKGKSLKEMETPLSALGIQDGCRVMLIGKKNSPQEEVELKKLKHLEKSVEKIADQLEELNKELTGIQQGFLPKDLQAEALCKLDRRVKATIEQFMKILEEIDTLILPENFKDSRLKRKGLVKKVQAFLAECDTVEQNICQETERLQSTNFALAE
modifications: [35S]methionine label (in vitro translation)

The chains behind the UniProt entries cited, without tags or fusion partners. Residues count along the entry.
UniProt P48510, residues 327-371: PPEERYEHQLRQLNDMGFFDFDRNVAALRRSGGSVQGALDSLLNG
UniProt O43765: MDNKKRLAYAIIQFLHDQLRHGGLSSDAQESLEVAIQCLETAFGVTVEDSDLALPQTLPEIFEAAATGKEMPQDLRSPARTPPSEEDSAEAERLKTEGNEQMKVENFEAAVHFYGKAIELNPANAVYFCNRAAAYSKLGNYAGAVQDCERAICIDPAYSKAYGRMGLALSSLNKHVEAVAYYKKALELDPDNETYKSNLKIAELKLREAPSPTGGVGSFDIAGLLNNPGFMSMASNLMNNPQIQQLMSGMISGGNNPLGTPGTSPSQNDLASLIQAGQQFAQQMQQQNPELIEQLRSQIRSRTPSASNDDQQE

Experiments:
[1] = target: UBA domain from Dsk2, immobilized (UniProt P48510); test: pull-down; altered binding conditions that favour the Dsk2-UBA interaction (manufacturer's instructions, Enzo Life Sciences); immobilised Dsk2-UBA or SGTA; [35S]-labelled wheat-germ translation product; only the target purified
[2] = target: small-glutamine rich tetratricopeptide repeat-containing protein alpha (SGTA), immobilized (UniProt O43765); test: pull-down; SGTA, BSA or His-Trx immobilised on UltraLink Biosupport; [35S]-labelled wheat-germ translation product; 2 h at 25°C; washed with buffer R (50 mM HEPES-KOH pH 7.5, 40 mM potassium acetate, 5 mM MgCl2); sequential elution with 1 M NaCl, 0.5% Triton X-100, SDS sample buffer; salt-sensitive binding read by phosphorimaging; quantified as % of input after subtracting the BSA signal; only the target …

Row | Binder | binding [1] | binding [2]
1 | B1 | no binding | –
2 | B2 | – | no binding
3 | B3 | – | no binding
